Data: the supplement of paper PMC10849652
The other results are listed elsewhere or left out.

Chains of the proteins cited; added tags and fusions are not shown. Lines headed by an entry give the natural chain unless they say otherwise; changes in a name come on top.
UniProt Q9UBU6: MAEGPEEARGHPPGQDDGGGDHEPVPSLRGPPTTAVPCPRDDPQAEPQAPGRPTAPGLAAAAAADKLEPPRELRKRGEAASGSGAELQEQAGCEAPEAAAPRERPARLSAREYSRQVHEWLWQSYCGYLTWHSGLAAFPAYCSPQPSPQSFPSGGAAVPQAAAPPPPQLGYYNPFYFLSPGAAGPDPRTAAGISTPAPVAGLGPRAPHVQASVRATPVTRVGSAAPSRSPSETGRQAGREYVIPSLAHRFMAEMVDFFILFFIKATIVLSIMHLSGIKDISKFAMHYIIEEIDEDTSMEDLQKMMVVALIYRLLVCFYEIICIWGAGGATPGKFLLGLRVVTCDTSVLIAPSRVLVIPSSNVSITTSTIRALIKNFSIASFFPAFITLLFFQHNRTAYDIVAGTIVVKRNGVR
UniProt O95684: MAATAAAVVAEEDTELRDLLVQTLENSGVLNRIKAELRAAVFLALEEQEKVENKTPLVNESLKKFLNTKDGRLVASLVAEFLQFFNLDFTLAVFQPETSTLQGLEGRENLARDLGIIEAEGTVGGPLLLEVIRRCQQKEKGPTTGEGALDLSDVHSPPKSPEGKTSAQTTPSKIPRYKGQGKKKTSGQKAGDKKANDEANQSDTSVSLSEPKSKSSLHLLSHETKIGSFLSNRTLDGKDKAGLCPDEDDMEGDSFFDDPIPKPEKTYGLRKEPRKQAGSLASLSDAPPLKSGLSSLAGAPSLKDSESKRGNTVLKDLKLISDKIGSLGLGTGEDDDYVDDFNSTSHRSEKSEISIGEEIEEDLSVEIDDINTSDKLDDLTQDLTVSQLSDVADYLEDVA
UniProt Q9NWM8: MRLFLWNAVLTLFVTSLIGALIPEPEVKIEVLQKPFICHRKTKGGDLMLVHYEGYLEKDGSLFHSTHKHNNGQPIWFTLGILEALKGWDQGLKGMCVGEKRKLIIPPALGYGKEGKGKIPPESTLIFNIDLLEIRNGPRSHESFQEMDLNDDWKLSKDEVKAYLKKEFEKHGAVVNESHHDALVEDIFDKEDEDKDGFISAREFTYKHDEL
UniProt Q92913: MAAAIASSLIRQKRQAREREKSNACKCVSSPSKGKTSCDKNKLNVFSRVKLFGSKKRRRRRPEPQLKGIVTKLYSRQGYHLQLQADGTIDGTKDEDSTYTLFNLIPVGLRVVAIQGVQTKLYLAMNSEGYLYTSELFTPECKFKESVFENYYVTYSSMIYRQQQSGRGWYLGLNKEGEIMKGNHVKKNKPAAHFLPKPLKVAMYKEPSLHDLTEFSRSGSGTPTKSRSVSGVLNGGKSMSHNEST
UniProt Q9NRD1: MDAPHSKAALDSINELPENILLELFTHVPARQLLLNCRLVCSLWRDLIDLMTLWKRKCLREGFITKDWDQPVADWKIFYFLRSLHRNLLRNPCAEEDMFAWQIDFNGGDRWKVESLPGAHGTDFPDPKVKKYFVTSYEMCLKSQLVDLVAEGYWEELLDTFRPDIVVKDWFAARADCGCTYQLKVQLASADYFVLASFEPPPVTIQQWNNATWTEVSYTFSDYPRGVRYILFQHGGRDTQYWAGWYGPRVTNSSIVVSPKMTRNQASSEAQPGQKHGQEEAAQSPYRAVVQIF
UniProt P26885: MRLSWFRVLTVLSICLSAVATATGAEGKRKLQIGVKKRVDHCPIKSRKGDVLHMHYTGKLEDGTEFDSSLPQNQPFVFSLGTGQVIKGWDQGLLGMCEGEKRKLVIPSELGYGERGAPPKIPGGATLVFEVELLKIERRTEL
UniProt Q9Y421: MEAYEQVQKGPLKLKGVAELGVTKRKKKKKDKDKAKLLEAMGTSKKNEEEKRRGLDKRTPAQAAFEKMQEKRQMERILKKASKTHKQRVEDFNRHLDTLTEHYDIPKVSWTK
UniProt P14324: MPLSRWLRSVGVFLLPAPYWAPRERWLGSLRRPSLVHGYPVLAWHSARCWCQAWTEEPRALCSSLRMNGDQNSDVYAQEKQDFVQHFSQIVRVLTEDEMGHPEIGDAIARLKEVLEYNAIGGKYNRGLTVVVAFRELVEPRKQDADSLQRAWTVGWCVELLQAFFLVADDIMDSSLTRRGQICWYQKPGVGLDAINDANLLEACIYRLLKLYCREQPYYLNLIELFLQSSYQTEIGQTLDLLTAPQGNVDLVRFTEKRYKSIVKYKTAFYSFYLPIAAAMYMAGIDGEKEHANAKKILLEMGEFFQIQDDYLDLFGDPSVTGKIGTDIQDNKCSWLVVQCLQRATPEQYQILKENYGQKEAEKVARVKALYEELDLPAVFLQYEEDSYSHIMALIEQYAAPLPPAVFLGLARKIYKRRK
UniProt Q8N3X1: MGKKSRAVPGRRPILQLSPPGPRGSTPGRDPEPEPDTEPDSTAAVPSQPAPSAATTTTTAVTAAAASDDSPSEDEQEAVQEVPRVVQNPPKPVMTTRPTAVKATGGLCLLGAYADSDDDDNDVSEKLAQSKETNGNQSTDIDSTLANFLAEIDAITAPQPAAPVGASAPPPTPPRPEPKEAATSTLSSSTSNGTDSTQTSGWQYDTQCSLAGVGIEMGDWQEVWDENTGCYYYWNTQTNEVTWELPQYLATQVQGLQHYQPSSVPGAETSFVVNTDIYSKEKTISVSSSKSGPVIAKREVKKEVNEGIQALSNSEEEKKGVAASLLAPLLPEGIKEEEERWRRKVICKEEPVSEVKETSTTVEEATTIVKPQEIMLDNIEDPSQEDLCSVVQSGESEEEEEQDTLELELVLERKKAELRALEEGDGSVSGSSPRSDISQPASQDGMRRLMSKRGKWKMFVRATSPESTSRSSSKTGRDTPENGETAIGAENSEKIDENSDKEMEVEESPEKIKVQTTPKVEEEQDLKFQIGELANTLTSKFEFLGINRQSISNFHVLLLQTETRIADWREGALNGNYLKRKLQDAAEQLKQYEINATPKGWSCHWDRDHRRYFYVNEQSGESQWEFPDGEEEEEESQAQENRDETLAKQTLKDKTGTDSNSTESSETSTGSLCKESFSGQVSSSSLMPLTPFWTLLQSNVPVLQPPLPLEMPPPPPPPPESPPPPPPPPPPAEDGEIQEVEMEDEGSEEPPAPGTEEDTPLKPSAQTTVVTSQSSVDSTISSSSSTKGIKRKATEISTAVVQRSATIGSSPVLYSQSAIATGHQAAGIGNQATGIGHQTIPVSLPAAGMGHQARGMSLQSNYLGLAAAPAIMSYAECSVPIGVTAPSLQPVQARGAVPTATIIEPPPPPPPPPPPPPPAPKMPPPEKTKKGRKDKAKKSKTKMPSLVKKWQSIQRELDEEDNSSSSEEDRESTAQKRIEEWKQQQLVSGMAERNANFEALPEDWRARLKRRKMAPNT
UniProt Q52LJ0: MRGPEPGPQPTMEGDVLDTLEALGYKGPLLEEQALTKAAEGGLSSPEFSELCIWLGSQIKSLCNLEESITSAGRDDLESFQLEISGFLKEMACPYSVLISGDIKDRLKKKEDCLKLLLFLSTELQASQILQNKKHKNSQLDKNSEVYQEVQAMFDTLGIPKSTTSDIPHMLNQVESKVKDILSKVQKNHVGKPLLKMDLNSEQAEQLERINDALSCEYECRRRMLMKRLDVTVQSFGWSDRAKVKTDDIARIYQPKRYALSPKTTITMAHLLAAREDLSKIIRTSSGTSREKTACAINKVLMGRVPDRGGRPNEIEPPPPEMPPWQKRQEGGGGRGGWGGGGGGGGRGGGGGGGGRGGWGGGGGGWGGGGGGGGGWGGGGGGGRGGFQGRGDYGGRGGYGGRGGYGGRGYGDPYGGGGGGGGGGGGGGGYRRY
UniProt Q9NSD9: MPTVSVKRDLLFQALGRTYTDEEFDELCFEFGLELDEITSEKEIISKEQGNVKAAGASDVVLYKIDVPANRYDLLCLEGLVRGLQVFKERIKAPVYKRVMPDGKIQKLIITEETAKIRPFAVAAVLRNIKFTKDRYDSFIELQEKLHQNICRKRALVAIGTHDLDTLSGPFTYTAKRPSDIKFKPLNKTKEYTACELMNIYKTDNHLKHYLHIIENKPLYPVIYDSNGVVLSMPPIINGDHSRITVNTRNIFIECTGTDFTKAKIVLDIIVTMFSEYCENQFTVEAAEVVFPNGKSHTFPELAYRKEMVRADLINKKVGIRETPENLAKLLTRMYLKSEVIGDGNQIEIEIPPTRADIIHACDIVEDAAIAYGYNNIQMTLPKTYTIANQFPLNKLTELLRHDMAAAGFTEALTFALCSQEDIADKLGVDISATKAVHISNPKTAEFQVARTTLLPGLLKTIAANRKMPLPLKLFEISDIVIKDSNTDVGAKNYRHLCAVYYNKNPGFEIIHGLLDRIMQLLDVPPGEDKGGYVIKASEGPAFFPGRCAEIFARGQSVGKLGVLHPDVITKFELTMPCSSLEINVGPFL
UniProt Q9Y3D6: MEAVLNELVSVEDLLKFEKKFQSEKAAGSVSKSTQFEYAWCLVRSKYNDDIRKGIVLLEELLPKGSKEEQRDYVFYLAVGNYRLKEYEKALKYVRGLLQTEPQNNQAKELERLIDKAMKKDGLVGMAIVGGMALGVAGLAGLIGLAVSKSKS
UniProt Q92520: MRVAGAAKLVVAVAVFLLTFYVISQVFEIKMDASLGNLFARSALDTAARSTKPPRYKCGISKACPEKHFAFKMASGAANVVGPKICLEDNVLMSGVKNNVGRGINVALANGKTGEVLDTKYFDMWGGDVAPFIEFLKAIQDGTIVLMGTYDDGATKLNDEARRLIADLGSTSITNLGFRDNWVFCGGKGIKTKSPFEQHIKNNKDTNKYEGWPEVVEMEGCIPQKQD

Compound: O=C(CCCCCCC(=O)Nc1ccccc1)NO [vorinostat]
Test: log2 fold change, soluble protein after heating vs DMSO (PISA); higher = thermal stabilisation; K562 cells, 10 uM, 30 min; active = over 0.2 and 3.5 SD of the protein, either way, in both replicates (recomputed)
In short: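 Soluble protein was defined as the supernatant after 21,000xg for 90 min. It came from K562 cells at 2×10^6 cells/mL given 10 μM compound for 30 min, heated in aliquots for 3 min across 48°C-58°C, pooled, and extracted in PBS with 0.5% NP-40 at 4°C, and was quantified by TMTpro 16plex LC-MS/MS with equalised channel sums. Thermal stability against control samples, from duplicates, is reported as log2 fold change.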

log2 fold change, inactive:
FAM8A1 (UniProt Q9UBU6) 0.033
FGFR1OP (UniProt O95684) 0.041
FKBP14 (UniProt Q9NWM8) -0.045
FGF13 isoform 3 (UniProt Q92913) -0.015
FBXO6 (UniProt Q9NRD1) 0.074
FKBP2 (UniProt P26885) -0.009
FAM32A (UniProt Q9Y421) -0.017
FDPS (UniProt P14324) 0.215
FNBP4 isoform 2 (UniProt Q8N3X1) -0.048
FAM98B (UniProt Q52LJ0) 0.077
FARSB (UniProt Q9NSD9) 0.019
FAM98A (UniProt Q8NCA5) 0.046
FAU (UniProt P62861) -0.015
FIS1 (UniProt Q9Y3D6) -0.027
FAM3C (UniProt Q92520) -0.025

A portion from further up, for reference:
log2 fold change, inactive:
FAM8A1 (UniProt Q9UBU6) 0.033
FGFR1OP (UniProt O95684) 0.041
FKBP14 (UniProt Q9NWM8) -0.045
FGF13 isoform 3 (UniProt Q92913) -0.015
